Experimental data reported in patent US20240345008A1 (Eth Zurich, priority 2021, published 2024).

Experiment: photo-CIDNP polarizability of ligands: signal-to-noise enhancement (SNE), irradiated vs non-irradiated 1H NMR
Format: physicochemical
Conditions: ligand 100 μM, 2 s irradiation, 600 MHz, phosphate buffer pH 7.0
[1] = photosensitizer fluorescein 25 μM, 450 nm
[2] = photosensitizer thionine 75 μM, 638 nm
[3] = photosensitizer AT12 25 μM, 532 nm

SMILES	signal-to-noise enhancement (SNE) [1]	also measured
CC(C)(Cc1nc(-c2ccc(O)cn2)no1)C(=O)NC1=C(C(=O)O)CCCC1 [2-{3-[3-(5-hydroxypyridin-2-yl)-1,2,4-oxadiazol-5-yl]-2,2-dimethylpropanamido}cyclohex-1-ene-1-carboxylic acid]	15	
O=C(O)c1cc2occc2[nH]1 [4H-furo[3,2-b]pyrrole-5-carboxylic acid]	44	
Nc1nccc(/C=C/c2ccccc2)n1 [4-[(1E)-2-phenylethenyl]pyrimidin-2-amine]	12	
NCCc1ccc(O)cc1 [4-(2-aminoethyl)phenol]		signal-to-noise enhancement (SNE) (photosensitizer methylene blue 75 μM, 638 nm): 16; signal-to-noise enhancement (SNE) [2]: 17
CCc1c(OC)sc(OC)c1CCNCc1ccccc1OC [2-(2,5-Dimethoxy-4-ethylthiophenyl)-N-[(2-methoxyphenyl)methyl]ethanamine]		signal-to-noise enhancement (SNE) [3]: 8
CCn1cc(C(=O)O)c(=O)c2cc(F)c(N3CCNCC3)cc21 [1-ethyl-6-fluoro-4-oxo-7-(piperazin-1-yl)-1,4-dihydroquinoline-3-carboxylic acid]	10	
CC(=O)Nc1ccc2[nH]ncc2c1 [N-(1H-indazol-5-yl)acetamide]	18	
O=C1NCCSc2c1sc1ccc(O)cc21 [4-hydroxy-8,14-dithia-11-azatricyclo[7.5.0.0^2,^7]tetradeca-1(9),2,4,6-tetraen-10-one]	10	
Cc1cccc(-c2nc(C(=O)O)c(C)[nH]2)c1 [ligand 3-1, 5-methyl-2-(3-methylphenyl)-imidazole-4-carboxylic acid]		signal-to-noise enhancement (SNE) [3]: 9
FC(F)(F)c1cccc(N2CCNCC2)c1 [N-(3-Trifluoromethylphenyl)-piperazine]		signal-to-noise enhancement (SNE) [3]: 10; signal-to-noise enhancement (SNE) (photosensitizer FMN 25 μM, 450 nm): 90
c1csc(-c2ncc[nH]2)c1 [2-(thiophen-2-yl)-1H-imidazole]		signal-to-noise enhancement (SNE) [2]: 9
O=C(O)c1cc2sccc2[nH]1 [4H-thieno[3,2-b]pyrrole-5-carboxylic acid]	103	
O=C(O)c1cccnc1Nc1cccc(C(F)(F)F)c1 [2-{[3-(trifluoromethyl)phenyl]amino}pyridine-3-carboxylic acid]	42	
Cc1ccnc(NS(=O)(=O)c2ccc(N)cc2)n1 [4-amino-N-(4-methylpyrimidin-2-yl)benzene-1-sulfonamide]	8	
O=C1NCCCc2c1oc1ccc(O)cc21 [ligand 3-4, 4-hydroxy-8-oxa-11-azatricyclo[7.5.0.0^2,7]tetradeca-1 (9),2,4,6-tetraen-10-one]	22	
O=C(Nc1c[nH]nc1-c1nc2ccc(CN3CCOCC3)cc2[nH]1)NC1CC1 [3-cyclopropyl-1-(3-{6-[(morpholin-4-yl)methyl]-1H-1,3-benzodiazol-2-yl}-1H-pyrazol-4-yl)urea]	15	
OC[C@H]1O[C@@H](n2cnc3c2NC=NC[C@H]3O)C[C@@H]1O [(8R)-3-[(2R,4S,5R)-4-hydroxy-5-(hydroxymethyl)oxolan-2-yl]-3H,4H,7H,8H-imidazo[4,5-d][1,3]diazepin-8-ol]	104	
c1ccc2[nH]c(-c3cscn3)nc2c1 [2-(1,3-thiazol-4-yl)-1H-1,3-benzodiazole]	20	
